Data taken from US20160090556A1, “PRODUCTS COMPRISING MALODOR REDUCTION MATERIALS” (The Procter & Gamble Company, priority 2014, published 2016).
Where two headings read alike, the source gives them in different places.

Assay: Melamine formaldehyde PMC leakage
[1] = class code letter within Comment Code
[2] = code J of the Comment Code column, Table 1

C=C1CCCC(C)(C)C2C=C(C)CCC12 (centres unmarked) [Material 707]
Melamine formaldehyde PMC leakage (Comment Code J): J (Melamine formaldehyde PMC leakage less than or equal to 5%)

CCCCCCCC(=O)OCCCCCC [Material 263]
Melamine formaldehyde PMC leakage (Comment Code J) [1]: J (Melamine formaldehyde PMC leakage less than or equal to 5%)

CC(C)=C1CCC(C)C2=C(C1)C(C)CC2 (centres unmarked) [Material 626]
Melamine formaldehyde PMC leakage (Comment Code J): J (Melamine formaldehyde PMC leakage less than or equal to 5%)

CCCCCCCCCCCC(=O)OC(C)C [Material 197]
Melamine formaldehyde PMC leakage (Comment Code J) [1]: J (Melamine formaldehyde PMC leakage less than or equal to 5%)

c1ccc2c(c1)CC1COCOC21 (centres unmarked) [Material 247]
Melamine formaldehyde PMC leakage (Comment Code J) [1]: J (Melamine formaldehyde PMC leakage less than or equal to 5%)

C[C@H]1[C@@H]2C[C@H](C[C@@]13C=CC(=O)CC3)C2(C)C [Material 1143]
Comment Code: Melamine formaldehyde PMC leakage [2]: J (Melamine formaldehyde PMC leakage less than or equal to 5%)
Comment Code: Melamine formaldehyde PMC leakage (code letter J): J (Melamine formaldehyde PMC leakage less than or equal to 5%)

CC(C)=CCCC(C)c1ccc(C)cc1 (centres unmarked) [Material 713]
Melamine formaldehyde PMC leakage (Comment Code J): J (Melamine formaldehyde PMC leakage less than or equal to 5%)

c1ccc(CCOC2CCCCC2)cc1 [Material 953]
Melamine formaldehyde PMC leakage (Comment Code J): J (Melamine formaldehyde PMC leakage less than or equal to 5%)

CC=C(C)C(=O)OCCC=CCC [Material 274]
Melamine formaldehyde PMC leakage (Comment Code J) [1]: J (Melamine formaldehyde PMC leakage less than or equal to 5%)

CC=Cc1ccc(OCc2ccccc2)c(OC)c1 [Material 212]
Melamine formaldehyde PMC leakage (Comment Code J) [1]: J (Melamine formaldehyde PMC leakage less than or equal to 5%)
Comment Code: Melamine formaldehyde PMC leakage (code letter J): J (Melamine formaldehyde PMC leakage less than or equal to 5%)

c1ccc(CCc2ccccc2)cc1 [Material 457]
Melamine formaldehyde PMC leakage (Comment Code J) [1]: J (Melamine formaldehyde PMC leakage less than or equal to 5%)

CC(C)(O)CCc1ccccc1 [Material 639]
Melamine formaldehyde PMC leakage (Comment Code J): J (Melamine formaldehyde PMC leakage less than or equal to 5%)

CC1CCC(C(C)C)C2(C1)OCC(CO)O2 (centres unmarked) [Material 349]
Melamine formaldehyde PMC leakage (Comment Code J) [1]: J (Melamine formaldehyde PMC leakage less than or equal to 5%)

CCOCOC1CCCCCCCCCCC1 [Material 607]
Melamine formaldehyde PMC leakage (Comment Code J): J (Melamine formaldehyde PMC leakage less than or equal to 5%)

C=C1CCC(C(C)C)C2C=C(C)CCC12 (centres unmarked) [Material 333]
Melamine formaldehyde PMC leakage (Comment Code J) [1]: J (Melamine formaldehyde PMC leakage less than or equal to 5%)

CC1/C=C/CCCCCCCCCCC(=O)C1 (centres unmarked) [Material 80]
Melamine formaldehyde PMC leakage (Comment Code J) [1]: J (Melamine formaldehyde PMC leakage less than or equal to 5%)

CCCCCC1C(=O)CCC1CC(=O)OC (centres unmarked) [Material 113]
Melamine formaldehyde PMC leakage (Comment Code J) [1]: J (Melamine formaldehyde PMC leakage less than or equal to 5%)

CC(C)=CCCC(C)(O)C1CC=C(C)CC1 (centres unmarked) [Material 718]
Melamine formaldehyde PMC leakage (Comment Code J): J (Melamine formaldehyde PMC leakage less than or equal to 5%)

CC(=O)OCCCCCCC(C)C [Material 204]
Comment Code: Melamine formaldehyde PMC leakage (code letter J): J (Melamine formaldehyde PMC leakage less than or equal to 5%)

COc1ccc(CC(C)C=O)cc1 (centres unmarked) [Material 586]
Melamine formaldehyde PMC leakage (Comment Code J): J (Melamine formaldehyde PMC leakage less than or equal to 5%)

CC(=O)OC1CC2C3C=CCC3C1C2(C)C (centres unmarked) [Material 360]
Melamine formaldehyde PMC leakage (Comment Code J) [1]: J (Melamine formaldehyde PMC leakage less than or equal to 5%)
Comment Code: Melamine formaldehyde PMC leakage (code letter J): J (Melamine formaldehyde PMC leakage less than or equal to 5%)

CCCCCCCCC1CCC(=O)O1 (centres unmarked) [Material 330]
Melamine formaldehyde PMC leakage (Comment Code J) [1]: J (Melamine formaldehyde PMC leakage less than or equal to 5%)

CCCCCCCCCC=CC=O [Material 806]
Melamine formaldehyde PMC leakage (Comment Code J): J (Melamine formaldehyde PMC leakage less than or equal to 5%)

CC1=CCC23C(C)CCC(C(C)C)C2C13 (centres unmarked) [Material 714]
Melamine formaldehyde PMC leakage (Comment Code J): J (Melamine formaldehyde PMC leakage less than or equal to 5%)
Comment Code: Melamine formaldehyde PMC leakage (code letter J): J (Melamine formaldehyde PMC leakage less than or equal to 5%)

CC1=CCCC2(C)CCC3CC12OC3(C)C (centres unmarked) [Material 726]
Melamine formaldehyde PMC leakage (Comment Code J): J (Melamine formaldehyde PMC leakage less than or equal to 5%)
Comment Code: Melamine formaldehyde PMC leakage (code letter J): J (Melamine formaldehyde PMC leakage less than or equal to 5%)

CC(CO)C1CCCCCCCCCCC1 (centres unmarked) [Material 252]
Melamine formaldehyde PMC leakage (Comment Code J) [1]: J (Melamine formaldehyde PMC leakage less than or equal to 5%)

CCCCCCCCCC(C)C=O (centres unmarked) [Material 103]
Melamine formaldehyde PMC leakage (Comment Code J) [1]: J (Melamine formaldehyde PMC leakage less than or equal to 5%)

CC(CCCC(C)(C)O)CC(c1c[nH]c2ccccc12)c1c[nH]c2ccccc12 (centres unmarked) [Material 244]
Melamine formaldehyde PMC leakage (Comment Code J) [1]: J (Melamine formaldehyde PMC leakage less than or equal to 5%)

COC(=O)OC1CC/C=C\CCC1 (centres unmarked) [Material 1139]
Comment Code: Melamine formaldehyde PMC leakage [2]: J (Melamine formaldehyde PMC leakage less than or equal to 5%)

CCCCCCC1=CCCC1=O [Material 209]
Melamine formaldehyde PMC leakage (Comment Code J) [1]: J (Melamine formaldehyde PMC leakage less than or equal to 5%)

CC1CCC2C(C2(C)C)C12COC(C)(C)OC2 (centres unmarked) [Material 1036]
Melamine formaldehyde PMC leakage (Comment Code J): J (Melamine formaldehyde PMC leakage less than or equal to 5%)

O=CC(=Cc1ccco1)c1ccccc1 [Material 833]
Melamine formaldehyde PMC leakage (Comment Code J): J (Melamine formaldehyde PMC leakage less than or equal to 5%)

CCCCCCOC(=O)c1ccccc1 [Material 271]
Melamine formaldehyde PMC leakage (Comment Code J) [1]: J (Melamine formaldehyde PMC leakage less than or equal to 5%)

CC1C(C)(C)C2=C(C3OC(C)(C)OC3CC2)C1(C)C (centres unmarked) [Material 23]
Melamine formaldehyde PMC leakage (Comment Code J) [1]: J (Melamine formaldehyde PMC leakage less than or equal to 5%)
Comment Code: Melamine formaldehyde PMC leakage (code letter J): J (Melamine formaldehyde PMC leakage less than or equal to 5%)

c1ccc(COCc2ccccc2)cc1 [Material 454]
Comment Code: Melamine formaldehyde PMC leakage (code letter J): J (Melamine formaldehyde PMC leakage less than or equal to 5%)

CCCCCCCCCCC=CC=O [Material 930]
Melamine formaldehyde PMC leakage (Comment Code J): J (Melamine formaldehyde PMC leakage less than or equal to 5%)

C=C(C)C(=O)OCCc1ccccc1 [Material 971]
Comment Code: Melamine formaldehyde PMC leakage (code letter J): J (Melamine formaldehyde PMC leakage less than or equal to 5%)

CC1CCCCCCCCCCCCC(=O)C1 (centres unmarked) [Material 206]
Melamine formaldehyde PMC leakage (Comment Code J) [1]: J (Melamine formaldehyde PMC leakage less than or equal to 5%)
Comment Code: Melamine formaldehyde PMC leakage (code letter J): J (Melamine formaldehyde PMC leakage less than or equal to 5%)

C=C1CCC23CC1C(C)(C)C2CCC3C (centres unmarked) [Material 632]
Melamine formaldehyde PMC leakage (Comment Code J): J (Melamine formaldehyde PMC leakage less than or equal to 5%)
Comment Code: Melamine formaldehyde PMC leakage (code letter J): J (Melamine formaldehyde PMC leakage less than or equal to 5%)

CCCCCCCCCCCCCO [Material 1090]
Melamine formaldehyde PMC leakage (Comment Code J): J (Melamine formaldehyde PMC leakage less than or equal to 5%)

CC(=CCCC1(C)C2CC3C(C2)C31C)CO (centres unmarked) [Material 694]
Melamine formaldehyde PMC leakage (Comment Code J): J (Melamine formaldehyde PMC leakage less than or equal to 5%)
Comment Code: Melamine formaldehyde PMC leakage (code letter J): J (Melamine formaldehyde PMC leakage less than or equal to 5%)

CC(=CCC1CC=C(C)C1(C)C)CO (centres unmarked) [Material 908]
Melamine formaldehyde PMC leakage (Comment Code J): J (Melamine formaldehyde PMC leakage less than or equal to 5%)

CC1=CC2C(C(C)C)CCC(C)(O)C2CC1 (centres unmarked) [Material 1046]
Melamine formaldehyde PMC leakage (Comment Code J): J (Melamine formaldehyde PMC leakage less than or equal to 5%)

CC(=O)c1cc(C(C)(C)C)cc2c1CCC2(C)C [Material 563]
Melamine formaldehyde PMC leakage (Comment Code J): J (Melamine formaldehyde PMC leakage less than or equal to 5%)

CC(=O)OC(C)CC/C=C(\C)CCC=C(C)C (centres unmarked) [Material 890]
Melamine formaldehyde PMC leakage (Comment Code J): J (Melamine formaldehyde PMC leakage less than or equal to 5%)

C=CC(C)CC/C=C(\C)CCC=O (centres unmarked) [Material 358]
Melamine formaldehyde PMC leakage (Comment Code J) [1]: J (Melamine formaldehyde PMC leakage less than or equal to 5%)

O=C1CCCCCCCCCCCCCCO1 [Material 370]
Melamine formaldehyde PMC leakage (Comment Code J) [1]: J (Melamine formaldehyde PMC leakage less than or equal to 5%)

CCOC(=O)C1OC1c1ccccc1 (centres unmarked) [Material 407]
Melamine formaldehyde PMC leakage (Comment Code J) [1]: J (Melamine formaldehyde PMC leakage less than or equal to 5%)

CC(C)=CCCC(C)=C1CC=C(C)CC1 [Material 608]
Melamine formaldehyde PMC leakage (Comment Code J): J (Melamine formaldehyde PMC leakage less than or equal to 5%)

C=C1[C@H]2CC[C@H](CO)[C@@]23CC[C@H](C3)C1(C)C [Material 183]
Melamine formaldehyde PMC leakage (Comment Code J) [1]: J (Melamine formaldehyde PMC leakage less than or equal to 5%)
Comment Code: Melamine formaldehyde PMC leakage (code letter J): J (Melamine formaldehyde PMC leakage less than or equal to 5%)

C=C(C)C1CCC2(C)CCCC(=C)C2C1 (centres unmarked) [Material 615]
Melamine formaldehyde PMC leakage (Comment Code J): J (Melamine formaldehyde PMC leakage less than or equal to 5%)

CC=CC(=O)OC(C)C1CCCCC1 (centres unmarked) [Material 475]
Melamine formaldehyde PMC leakage (Comment Code J) [1]: J (Melamine formaldehyde PMC leakage less than or equal to 5%)

C[C@@H]1CCC=C2CC[C@@H](C(C)(C)O)C[C@]21C [Material 1107]
Melamine formaldehyde PMC leakage (Comment Code J): J (Melamine formaldehyde PMC leakage less than or equal to 5%)
Comment Code: Melamine formaldehyde PMC leakage (code letter J): J (Melamine formaldehyde PMC leakage less than or equal to 5%)

O=C1CCCCCCCCCCC(=O)OCCO1 [Material 485]
Melamine formaldehyde PMC leakage (Comment Code J) [1]: J (Melamine formaldehyde PMC leakage less than or equal to 5%)

CCCCCCCCOC(C)=O [Material 29]
Melamine formaldehyde PMC leakage (Comment Code J) [1]: J (Melamine formaldehyde PMC leakage less than or equal to 5%)

CC(C)=CCCC(C)CCOC=O (centres unmarked) [Material 512]
Comment Code: Melamine formaldehyde PMC leakage (code letter J): J (Melamine formaldehyde PMC leakage less than or equal to 5%)

CCCCCCC(=O)OCc1ccco1 [Material 339]
Melamine formaldehyde PMC leakage (Comment Code J) [1]: J (Melamine formaldehyde PMC leakage less than or equal to 5%)

C=CC(C)=CCC=C(C)CCC=C(C)C [Material 710]
Melamine formaldehyde PMC leakage (Comment Code J): J (Melamine formaldehyde PMC leakage less than or equal to 5%)

CC1=C2CCC3(C)OC3C2C(C)(C)CCC1 (centres unmarked) [Material 624]
Melamine formaldehyde PMC leakage (Comment Code J): J (Melamine formaldehyde PMC leakage less than or equal to 5%)
Comment Code: Melamine formaldehyde PMC leakage (code letter J): J (Melamine formaldehyde PMC leakage less than or equal to 5%)
